Experimental data reported in publication PMC4468220, “Defective Proteasome Delivery of Polyubiquitinated Proteins by Ubiquilin-2 Proteins Containing ALS Mutations” (PLoS ONE, 2015).
Results are given in words; binding and its absence hold for the method and conditions named. Binding seen in cells or lysates may run through a third protein. Some entries that bind do so weakly or less than the wild type.

By UniProt entry, the sequences of proteins in these tests, tags left out. Where a name states a change or a piece, a line headed by the entry shows the natural chain unless it says otherwise.
UniProt Q9UHD9: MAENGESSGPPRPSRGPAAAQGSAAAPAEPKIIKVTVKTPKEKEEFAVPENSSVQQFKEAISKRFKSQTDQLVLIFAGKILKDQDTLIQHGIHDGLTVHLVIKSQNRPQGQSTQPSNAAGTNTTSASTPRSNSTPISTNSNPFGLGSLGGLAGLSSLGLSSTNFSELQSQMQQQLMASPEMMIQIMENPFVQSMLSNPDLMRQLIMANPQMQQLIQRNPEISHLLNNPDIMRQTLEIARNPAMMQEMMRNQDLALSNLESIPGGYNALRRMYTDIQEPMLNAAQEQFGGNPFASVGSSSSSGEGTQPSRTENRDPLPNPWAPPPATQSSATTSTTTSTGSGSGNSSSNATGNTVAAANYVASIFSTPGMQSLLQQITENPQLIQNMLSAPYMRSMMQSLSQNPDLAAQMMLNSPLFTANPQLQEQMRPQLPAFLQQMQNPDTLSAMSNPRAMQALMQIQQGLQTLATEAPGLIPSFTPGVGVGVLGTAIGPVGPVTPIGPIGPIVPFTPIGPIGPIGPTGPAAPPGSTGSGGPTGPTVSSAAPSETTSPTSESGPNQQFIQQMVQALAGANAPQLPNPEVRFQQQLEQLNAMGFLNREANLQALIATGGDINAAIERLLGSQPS
UniProt P25786: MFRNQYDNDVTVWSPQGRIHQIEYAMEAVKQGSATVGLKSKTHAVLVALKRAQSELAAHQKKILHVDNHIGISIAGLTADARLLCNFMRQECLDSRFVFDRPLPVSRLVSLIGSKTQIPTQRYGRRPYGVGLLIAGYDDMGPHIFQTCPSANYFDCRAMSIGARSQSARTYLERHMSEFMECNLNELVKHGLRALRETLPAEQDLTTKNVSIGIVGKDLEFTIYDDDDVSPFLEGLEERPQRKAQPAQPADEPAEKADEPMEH

Tests used:
Assay in all cases: co-IP; HeLa cells transfected with HA-tagged ubiquilin-2 constructs; lysates in RIPA buffer (0.2% NP40, 50mM Tris pH 7.5, 150mM NaCl, 2mM EDTA); rabbit anti-HA on Protein A/G Dynabeads, 4°C; precipitates blotted for ubiquitin and the alpha 6-subunit; signal normalised to precipitated HA protein
[1] = target: HA-tagged human ubiquilin-2 P497H (human) (UniProt Q9UHD9)
[2] = target: HA-tagged human ubiquilin-2 P497S (human) (UniProt Q9UHD9)
[3] = target: HA-tagged human ubiquilin-2 P506T (human) (UniProt Q9UHD9)
[4] = target: HA-tagged human ubiquilin-2 P509S (human) (UniProt Q9UHD9)
[5] = target: HA-tagged human ubiquilin-2 P525S (human) (UniProt Q9UHD9)
[6] = target: HA-tagged wild type human ubiquilin-2 (human) (UniProt Q9UHD9)

Measured: binding

alpha 6-subunit of the proteasome (from UniProt P25786 1-263)
binds: all assays above
